Results are given in words; binding and its absence hold for the method and conditions named. Binding seen in cells or lysates may run through a third protein. For some of these results: Binding can be weak; no strength is given. For some of these results: Tags and fused reporters may be left off the sequences shown. Values belong to the molecule of their own block, whether it stands above or below them.
Legend:
[1] = biological target: T1, FLAG-TRAF6 (UniProt P70196); assay: co-IP; FLAG-TRAF6 immunoprecipitated from HEK293T without or with co-expressed TRIP6 as competitor (HA-TRIP6; EGFP-TRIP6 or its deletion mutants); starved 6 h, without or with LPA; immunoblot for endogenous A20, CYLD
T1 sequence: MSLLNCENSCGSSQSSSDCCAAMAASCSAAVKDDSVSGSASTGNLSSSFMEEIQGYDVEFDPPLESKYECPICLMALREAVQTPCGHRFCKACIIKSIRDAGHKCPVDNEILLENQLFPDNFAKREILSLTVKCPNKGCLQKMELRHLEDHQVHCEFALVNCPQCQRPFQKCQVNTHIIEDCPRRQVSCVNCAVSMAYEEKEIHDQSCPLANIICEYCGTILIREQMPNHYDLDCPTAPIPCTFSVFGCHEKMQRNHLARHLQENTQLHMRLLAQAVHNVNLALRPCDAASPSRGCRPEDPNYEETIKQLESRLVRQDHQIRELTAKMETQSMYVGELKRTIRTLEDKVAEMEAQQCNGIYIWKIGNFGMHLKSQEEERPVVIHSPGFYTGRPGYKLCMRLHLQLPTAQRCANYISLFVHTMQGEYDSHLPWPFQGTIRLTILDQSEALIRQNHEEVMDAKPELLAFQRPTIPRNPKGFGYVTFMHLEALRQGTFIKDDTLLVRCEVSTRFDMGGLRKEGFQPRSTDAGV

Sequences of proteins named here, by UniProt entry; tags and fusion partners are left off. A change or cut given only in a name is not applied to a line headed by its entry.
UniProt Q15654: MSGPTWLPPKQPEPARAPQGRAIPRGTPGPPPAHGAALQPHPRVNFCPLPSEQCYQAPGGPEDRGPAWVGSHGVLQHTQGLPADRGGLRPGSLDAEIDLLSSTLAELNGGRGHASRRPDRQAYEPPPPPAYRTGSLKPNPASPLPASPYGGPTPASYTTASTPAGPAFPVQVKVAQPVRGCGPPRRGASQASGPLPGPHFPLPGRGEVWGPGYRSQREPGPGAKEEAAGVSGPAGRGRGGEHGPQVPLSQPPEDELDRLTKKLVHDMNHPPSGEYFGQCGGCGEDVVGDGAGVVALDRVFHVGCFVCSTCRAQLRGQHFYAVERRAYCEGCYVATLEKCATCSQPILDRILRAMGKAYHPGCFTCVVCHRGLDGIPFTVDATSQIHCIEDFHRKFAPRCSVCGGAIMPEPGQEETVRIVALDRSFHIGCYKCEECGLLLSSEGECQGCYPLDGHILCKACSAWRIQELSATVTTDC

[2] = biological target: C311A/C314A mutant FLAG-LPA2 receptor; assay: co-IP; FLAG-LPA2 receptor immunoprecipitated with anti-FLAG M2 agarose from LPA1/2 DKO MEFs; starved 5 h, 2 μM LPA 30 min; immunoblot for endogenous TRIP6 and TRAF6
[3] = biological target: FLAG-LPA2 receptor, wild type; assay: as above

binding [1]: binds
Molecule: EGFP-ΔLIM1 mutant of TRIP6 (from UniProt Q15654)

binding [2]: no binding
B1: TRAF6, endogenous in mouse embryonic fibroblasts (protein, UniProt P70196 1-530)
chain: T1 sequence

binding [3]: binds
binding [2]: no binding
B2: TRIP6, endogenous in mouse embryonic fibroblasts (protein, UniProt Q9Z1Y4 1-480)
chain: MSGPTWLPPKQPEPSRLPQGRSLPRGALGPPTAHGATLQPHPRVNFCPLPPEHCYQPPGVPEDRGPTWVGSHGTPQRLQGLPPDRGIIRPGSLDAEIDSLTSMLADLDGGRSHAPRRPDRQAFEAPPPHAYRGGSLKPSGGAVPTPMLPASHYGGPTPASYATASTPAGPAFPVQVKVAQPVRGCGLPRRGASQASGPLPGPHFPLTGRGEVWGAGYRSHREPGPGVPEGPSGVHIPAGGGRGGGHEPQGPLGQPPEEELERLTKKLVHDMSHPPSGEYFGRCGGCGEDVVGDGAGVVALDRVFHIGCFVCSTCRAQLRGQHFYAVERRAYCESCYVATLEKCSTCSEPILDRILRAMGKAYHPGCFTCVVCHRGLDGIPFTVDATSQIHCIEDFHRKFAPRCSVCGGAIMPEPGQEETVRIVALDRSFHIGCYKCEECGLLLSSEGECQGCYPLDGHILCKACSAWRIQELSATVTTDC
